# Laboratory results as given in PubChem BioAssay AID1671190 (National Center for Advancing Translational Sciences (NCATS), 2021).
# Amino acid sequences for entries named in this document (tags omitted). A change or cut given only in a name is not applied to a line headed by its entry.
# UniProt P18054: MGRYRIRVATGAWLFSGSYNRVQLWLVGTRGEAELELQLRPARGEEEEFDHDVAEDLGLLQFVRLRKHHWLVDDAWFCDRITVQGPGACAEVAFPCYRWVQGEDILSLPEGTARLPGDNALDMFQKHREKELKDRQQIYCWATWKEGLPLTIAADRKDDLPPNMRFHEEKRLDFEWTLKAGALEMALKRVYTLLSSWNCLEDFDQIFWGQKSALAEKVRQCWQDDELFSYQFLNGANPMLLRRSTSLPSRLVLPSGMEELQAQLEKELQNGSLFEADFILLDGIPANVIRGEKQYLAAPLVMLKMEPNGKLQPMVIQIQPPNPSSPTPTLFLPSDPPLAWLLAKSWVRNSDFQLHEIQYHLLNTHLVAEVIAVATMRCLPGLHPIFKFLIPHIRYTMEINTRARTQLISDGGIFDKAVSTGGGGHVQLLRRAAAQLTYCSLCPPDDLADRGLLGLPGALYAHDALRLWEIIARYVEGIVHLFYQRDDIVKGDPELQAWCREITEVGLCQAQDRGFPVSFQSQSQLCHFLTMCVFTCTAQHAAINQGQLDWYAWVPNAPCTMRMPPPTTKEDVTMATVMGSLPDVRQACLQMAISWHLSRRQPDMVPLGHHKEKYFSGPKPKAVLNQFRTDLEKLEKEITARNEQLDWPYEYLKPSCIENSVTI
# Screen size: about 580,000 compounds; about 6,100 (1.1%) were called active. Inconclusive means that the source gave no clear call. Such entries were picked first, then a sample of the others. Calls follow the shape of the dose curve; as a rule, active = well fitted inhibition curve with a large enough effect; inconclusive = small, poorly fitted or top-dose-only effect, or another doubt; inactive = no such curve, though single readings can be large or run the other way. A potency beside an inconclusive call is a rough fit, not a confirmed value.
# Biological target: Polyunsaturated fatty acid lipoxygenase ALOX12 (Homo sapiens) (UniProt P18054)
# Assay: Primary qHTS assay for inhibitors of human arachidonate 12S-lipoxygenase (ALOX12): Round 2
# Conditions: purified 12hLO, xylenol orange hydroperoxide absorbance; series mostly up to 108 µM
# Method in brief: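 Purified human 12hLO at 150 nM in 25 mM Hepes, 0.01% Triton X-100, pH 7.0, preincubated 15 min at room temperature with compound. Reaction started with 40 uM arachidonic acid, 30 min at room temperature. Hydroperoxide measured by Fe-xylenol orange, 573/405 nm absorbance ratio.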
# Potency is read from the fitted curve at half-maximal effect.
row,Structure (SMILES),Potency
1,Cn1c(=O)c2c(ncn2CCCC(=O)Nc2ccc(N3CCCC3=O)cc2)n(C)c1=O,inactive
2,CC1(C)CC(=O)C2=C(C1)C(c1cn(-c3ccccc3)nc1-c1ccccc1)C(C#N)=C(N)O2 (configuration not stated),inactive
3,Cc1ccc(CNC(=O)CN2C(=O)NC(C)(c3ccccc3Cl)C2=O)cc1 (configuration not stated),"inconclusive: 50.1 µM [inhibitor, partial curve, poor fit]"
4,O=[N+]([O-])c1cccc(/C=C/c2nc3nc4ccccc4nc3n2-c2cccc(C(F)(F)F)c2)c1,inactive
5,COC(=O)[C@@]1(Cc2ccc(OC)cc2)[C@H]2c3cc(C(=O)N4CCCC4)n(CCc4c[nH]c5ccccc45)c3C[C@H]2CN1C(=O)c1ccccc1,"inconclusive: 70.8 µM [inhibitor, partial curve, poor fit]"
6,COc1ccc(N(Cc2ccccc2)S(=O)(=O)c2cccc(C(=O)NCC3CCCO3)c2)cc1 (configuration not stated),"inconclusive: 35.5 µM [inhibitor, partial curve, poor fit]"
7,CCOC(=O)c1cnc2nc(C)[nH]n2c1=O,"inconclusive: 31.6 µM [inhibitor, single point]"
8,CCOC(=O)c1c(NC(=O)C2CC(Cl)=CCC2C(=O)O)sc2c1CC(C)(C)OC2 (configuration not stated),"inconclusive: 39.8 µM [inhibitor, partial curve, poor fit]"
9,O=C(Nc1ccccc1F)c1ccc2nc(N3C(=O)CCC3=O)sc2c1,"inconclusive: 50.1 µM [inhibitor, partial curve, poor fit]"
10,Cc1cc(F)ccc1S(=O)(=O)NCCc1csc2nc(-c3ccc(Cl)cc3)nn12,"inconclusive: 100 µM [inhibitor, partial curve, poor fit]"
11,NNc1ccc(Cc2ccc(Cl)cc2Cl)nn1,"inconclusive: 50.1 µM [inhibitor, partial curve, poor fit]"
12,Cc1cc(NC(=O)COC(=O)c2cnccn2)ccc1Br,"inconclusive: 126 µM [inhibitor, single point]"
13,COc1ccc(C(=O)NC[C@@H]2CC[C@H]3C[C@@H]2C3(C)C)cc1,"inconclusive: 126 µM [inhibitor, partial curve, poor fit]"
14,Cc1cccc(CN2C(=O)c3ccccc3Sc3ccc(C(=O)NCCCN4CCOCC4)cc32)c1,"inconclusive: 50.1 µM [inhibitor, partial curve, poor fit]"
15,CC(C)c1ccc(CNCCN2CCCC2)cc1,"inconclusive: 20 µM [inhibitor, partial curve]"
16,CC(=O)/C(=N/Nc1cccc(Cl)c1)N1CCOCC1,"inconclusive: 39.8 µM [inhibitor, partial curve, poor fit]"
17,OC[C@@H]1CNC[C@H]1c1nc(-c2ccncc2)no1,"inconclusive: 3.55 µM [inhibitor, full curve]"
18,COc1ccccc1C1CN=NC12CCCc1ccccc1C2=O (configuration not stated),inactive
19,CCn1ncc(Br)c1C(=O)Nc1ccc(F)cc1F,inactive
20,COC(=O)N/N=C/c1cn(Cc2ccc(Cl)cc2Cl)c2ccccc12,"inconclusive: 89.1 µM [inhibitor, partial curve, poor fit]"
21,COc1ccc(Cl)cc1C(=O)CSc1nc(N)cc(N)n1,"inconclusive: 31.6 µM [inhibitor, partial curve, poor fit]"

row,Structure (SMILES),Potency
1,Cn1c(=O)c2c(nc(CN3CCc4ccccc4C3)n2Cc2ccc(Cl)cc2)n(C)c1=O,inactive
2,CNC(=O)[C@@H](c1ccccc1F)N1CCC[C@H]1C(=O)NCCOC,"inconclusive: 11.2 µM [inhibitor, full curve]"
3,O=C(CCc1ccccc1)NC(=S)Nc1cccc(C(=O)O)c1,"inconclusive: 31.6 µM [inhibitor, single point]"
4,O=C(C[C@@H]1CC[C@H](NS(=O)(=O)c2ccccc2F)[C@@H](CO)O1)NCCCN1CCOCC1,"inconclusive: 79.4 µM [inhibitor, partial curve, poor fit]"
5,COc1c(O)cc2c(c1O)[C@@H]1O[C@H](CO)[C@@H](O)[C@H](O)[C@H]1OC2=O,inactive
6,CCCS(=O)(=O)N1CCN(c2ccc(N3CCOCC3)nn2)CC1,inactive
7,O=C1CC(c2ccccc2)N(Cc2ccncc2)CCCN(C(=O)c2cc3ccccc3[nH]2)CCN1 (configuration not stated),inactive
8,Fc1cccc(-n2nnnc2SCc2cc(Cl)c3c(c2)OCCCO3)c1,"inconclusive: 50.1 µM [inhibitor, partial curve, poor fit]"
9,COCCN1C(=O)c2ccccc2C(C(=O)Nc2nc3c(s2)CCC3)C12CCCCC2 (configuration not stated),inactive
10,O=C(Cc1ccccn1)N1CC(=O)N2[C@H](CO)[C@@H](c3ccc(Br)cc3)[C@H]2C1,"inconclusive: 100 µM [inhibitor, single point]"
11,CN(C)c1ccc(-n2cccc2/C=C/[N+](=O)[O-])cc1,"inconclusive: 56.2 µM [inhibitor, partial curve, poor fit]"
12,COCC1CN(C(C)=O)CC12CCN(Cc1ccccc1C(F)(F)F)CC2 (configuration not stated),"inconclusive: 39.8 µM [inhibitor, partial curve]"
13,N#Cc1cc(C(=O)c2ccccc2O)cn(-c2nccs2)c1=O,inactive
14,Nc1ncc(N=Nc2cc(C(=O)O)ccc2Cl)s1,"inconclusive: 39.8 µM [inhibitor, partial curve, poor fit]"
15,Cc1nn(C)c(C(=O)NNC(=S)NCc2ccco2)c1Cl,"inconclusive: 100 µM [inhibitor, single point]"
16,CSc1ccccc1NC(=O)/C=C/c1ccc(F)cc1,inactive
17,Cc1[nH]c2ccccc2c1C(=O)C(=O)N1CCN(C2CC2)CC1,"inconclusive: 126 µM [inhibitor, partial curve, poor fit]"
18,COc1ccc(CNC(=O)C2CCC(CNS(=O)(=O)c3ccc(C)cc3)CC2)cc1 (configuration not stated),"inconclusive: 56.2 µM [inhibitor, partial curve, poor fit]"
19,O=C(/C=C/c1ccccc1)N1CCOCC1,inactive
20,COC(=O)CC1C(=O)NCCN1C(=O)c1ccccc1-c1ncc[nH]1 (configuration not stated),inactive
21,COC1CCCN(C(=O)c2ccc(OC3CCN(S(=O)(=O)N(C)C)CC3)cc2)C1 (configuration not stated),inactive

# In the list so far, these have a nitro group on carbon:
row,Structure (SMILES),Potency
4,O=[N+]([O-])c1cccc(/C=C/c2nc3nc4ccccc4nc3n2-c2cccc(C(F)(F)F)c2)c1,inactive
11,CN(C)c1ccc(-n2cccc2/C=C/[N+](=O)[O-])cc1,"inconclusive: 56.2 µM [inhibitor, partial curve, poor fit]"
